Drawing on patent publication US11065317B2 (Agenus Inc., priority 2018, dated 2021), this text covers difficulty met for one sequence.

Plain letter strings leave the end groups untold.

A short description of this data set: peptide synthesis. As to conditions: whole synthesis.

As for EVSGLEQLESIINFEKLTEWTSSNVME, the difficulty met result is “the naked Ova peptide (middle panel) had a heterogeneous signal”.
